Earlier results in patent US12377071B2, “Methods of treating conditions related to the S1P1 receptor” (Arena Pharmaceuticals, Inc., priority 2015, dated 2025).
At least one compound was matched to its structure with a doubt left.

Columns and labels:
[1] = tested on: mice; conditions: cited from earlier work
[2] = in vivo; cited from earlier work
[3] = tested on: individuals with multiple sclerosis; conditions: Phase II, relapsing-remitting multiple sclerosis; cited from earlier work
[4] = tested on: C57BL/6 mice; conditions: prophylactic oral administration, 1 mg/kg, three times a week; cited from earlier work
[5] = tested on: experimental autoimmune uveoretinitis; conditions: short-term high dose; cited from earlier work
[6] = tested on: mice; conditions: oral administration to mice; cited from earlier work

Question: What does the source list for `CCCCCCCCc1ccc(CCC(N)(CO)CO)cc1` [FTY720, fingolimod]?
Answer: Ovariectomy-induced osteoporosis [1]: relieved ovariectomy-induced osteoporosis; Lymphopenia [2]: rapidly and reversibly induce lymphopenia; MRI lesions and clinical disease activity [3]: reduce the number of lesions detected by magnetic resonance imaging (MRI) and clinical disease activity; Development of EAMG [4]: completely prevented the development of experimental autoimmune myasthenia gravis (EAMG); Ocular infiltrates [5]: rapidly reduced ocular infiltrates; VEGF-induced vascular permeability [6]: potently blocked VEGF-induced vascular permeability
